Test results taken from PubChem BioAssay AID540256 (National Center for Advancing Translational Sciences (NCATS), 2011).
Hit rate of the full screen: of about 300,000 compounds, about 3,700 (1.2%) were called active. Inconclusive means that the source gave no clear call. Such entries were picked first, then a sample of the others. The call rests on the fitted dose curve; tested in HEK293 cells. Potencies of inconclusive entries are doubtful fits and often do not repeat.

Experiment: qHTS for Inhibitors of binding or entry into cells for Lassa Virus; further: nearly all actives have a fitted effect of over 50% in size
Details: Lassa virus pseudotype entry inhibition, cell reporter; series mostly up to 37.9 µM
Potency means the concentration at half of the fitted maximal effect.

Row | SMILES | Potency
1 | O=C(N/C=N/OCc1ccc(Cl)cc1Cl)NOCc1ncc(C(F)(F)F)cc1Cl | inconclusive: 28.2 µM [inhibitor, single point]
2 | COc1ccc(C(Nc2ccccn2)c2oc(CO)cc(=O)c2O)cc1 (configuration not stated) | inactive
3 | Cc1ccc(Nc2cc(C)c(C#N)c3nc4ccccc4n23)c(C)c1 | inactive
4 | COC(=O)c1sccc1S(=O)(=O)N(CC(=O)Nc1ccccc1)c1ccccc1 | inactive
5 | CCc1ccc(CNC(=O)c2cnc3c(C)cccn3c2=O)cc1 | inconclusive: 10 µM [inhibitor, single point]
6 | NS(=O)(=O)c1ccc(N/N=C/c2ccccc2Br)cc1 | inconclusive: 35.5 µM [inhibitor, single point]
7 | Fc1ccccc1CNCCC(Cc1ccccc1)c1ccc2c(c1)OCO2 (configuration not stated) | inconclusive: 25.9 µM [inhibitor, partial curve, poor fit]
8 | C=CCSc1nccc(-c2nn(-c3ccc(C)cc3)ccc2=O)n1 | active: 3.16 µM
9 | Fc1ccccc1NC(=S)N1CCC(c2ccccc2)C1 (configuration not stated) | inconclusive: 35.5 µM [inhibitor, single point]
10 | CSc1ccc(CCNC(=O)c2cc3cc4cc(C)ccc4nc3s2)cc1 | inactive
11 | COc1ccccc1NS(=O)(=O)c1cc(NC(=O)C(C)C)ccc1N1CCCCC1 | inconclusive: 22.4 µM [inhibitor, single point]
12 | C[C@@H](C(=O)Nc1ccccc1N1CCOCC1)N1C(=O)C2CCCCC2C1=O (some centres not stated) | inactive
13 | CN1CCN(c2ccc(NC(=O)COc3ccccc3)cc2Cl)CC1 | inactive
14 | O=C1COc2ccc(C(=O)CCl)cc2N1 | inactive
15 | Cc1ccccc1C(=O)NCc1ccncc1 | inconclusive: 14.1 µM [activator, partial curve, poor fit]
16 | CC(C)CNC(=O)c1cc(-c2ccc(Cl)c(Cl)c2)on1 | inconclusive: 13 µM [activator, partial curve, poor fit]
17 | O=C(NCCc1ccccn1)c1ccc2nc(Cc3ccccc3F)oc2c1 | inconclusive: 5.62 µM [activator, single point]
18 | COc1cc(OC)nc(/N=C/NO)n1 | inconclusive: 1.26 µM [inhibitor, single point]
19 | CC(C)C1C(=O)N(Cc2cn(CC3CCCCC3)nn2)CCS(=O)(=O)N1Cc1ccc(-c2cccc(CO)c2)cc1 (configuration not stated) | inconclusive: 28.1 µM [inhibitor, partial curve, poor fit]
20 | CC(=O)Nc1cccc(NC(=O)CSc2ccc(-c3sc(-c4ccccc4)nc3C)nn2)c1 | inconclusive: 35.5 µM [inhibitor, single point]
21 | C(=N\N(c1ccccc1)c1ccccc1)/c1ccccn1 | inconclusive: 3.55 µM [inhibitor, partial curve, poor fit]
22 | CCCC1=Nc2cc(C(=O)NCCN3CCOCC3)ccc2Sc2ccccc21 | inconclusive: 2.51 µM [inhibitor, full curve]
23 | c1ccc(-c2cc3c(NCC4COc5ccccc5O4)ncnc3s2)cc1 (configuration not stated) | active: 11.6 µM

A draw from above in order of molar mass, falling.
Row | SMILES | Potency
12 | C[C@@H](C(=O)Nc1ccccc1N1CCOCC1)N1C(=O)C2CCCCC2C1=O (some centres not stated) | inactive
13 | CN1CCN(c2ccc(NC(=O)COc3ccccc3)cc2Cl)CC1 | inactive
6 | NS(=O)(=O)c1ccc(N/N=C/c2ccccc2Br)cc1 | inconclusive: 35.5 µM [inhibitor, single point]
8 | C=CCSc1nccc(-c2nn(-c3ccc(C)cc3)ccc2=O)n1 | active: 3.16 µM

Continuation.

Row | SMILES | Potency
24 | O=C(CN(c1ccc(Cl)cc1)S(=O)(=O)c1ccc(Cl)c([N+](=O)[O-])c1)NCCc1ccccc1 | inactive
25 | Cc1ccccc1C(=O)NCCNC(=O)c1ccco1 | inactive
26 | COc1cc2ccccc2cc1C(=O)N(CCN(C)C)c1nc2c(OC)ccc(OC)c2s1 | inconclusive: 10 µM [inhibitor, partial curve, poor fit]
27 | CCN1C(=O)NC(=O)/C(=C/c2cc(C)n(-c3sc(C)c(C)c3C#N)c2C)C1=O | inconclusive: 22.4 µM [inhibitor, single point]
28 | CC(C)CCNC(=O)C(=O)Nc1c2c(nn1-c1ccc(Cl)cc1)CSC2 | inactive
29 | Cn1c(=O)[nH]c(=O)c2c1nc(Br)n2C/C=N/NC(=O)c1ccccc1 | inactive
30 | CCOC(=O)c1cc2c(=O)n3ccccc3nc2n(CC2CCCO2)c1=NC(=O)/C=C/c1ccccc1 (configuration not stated) | inconclusive: 15.8 µM [inhibitor, single point]
31 | CCn1c(SCC(=O)N(C(C)C)C(C)C)nnc1-c1cc2ccccc2cc1O | inactive
32 | Cc1nn2c(=O)cc(COC(=O)c3cccc(NC(=O)c4ccc(F)cc4)c3)nc2s1 | inconclusive: 5.01 µM [activator, full curve, poor fit]
33 | N#C/C(=C\c1c(Cl)cccc1Cl)c1nc2ccccc2[nH]1 | inconclusive: 35.5 µM [inhibitor, single point]
34 | COc1ccc(C(=O)n2nc(-c3ccc(C)cc3)nc2N)cc1OC | inconclusive: 10 µM [inhibitor, single point]
35 | COc1ccc(-c2c[n+](CC(=O)c3cccs3)c3n2CCC3)cc1 | inactive
36 | COc1ccc(S(=O)(=O)N(C)CC(=O)NCCCN2CCOCC2)cc1Cl | inconclusive: 1.26 µM [inhibitor, single point]
37 | Cc1cccc(Nc2nnc(-c3ccc(C)c(S(=O)(=O)N4CCN(C)CC4)c3)c3ccccc23)c1 | inconclusive: 28.2 µM [inhibitor, single point]
38 | CC(=O)Nc1ccc(S(=O)(=O)N2CCN(c3cc(C(F)(F)F)ccn3)CC2)cc1 | inconclusive: 35.5 µM [inhibitor, single point]
39 | O=C1c2ccccc2C(=O)N1CCN1CCc2ccccc21 | inconclusive: 9.2 µM [activator, partial curve]
40 | Cc1cc(C)n2nc(CNS(=O)(=O)c3ccccc3)nc2n1 | inconclusive: 35.5 µM [activator, single point]
41 | O=C1N/C(=C\c2ccc(O)cc2)C(=O)c2ccccc21 | inconclusive: 29.1 µM [inhibitor, single point]
42 | CCOC(=O)c1ccccc1NC(=O)COC(=O)CC(C)(C)CC1=NS(=O)(=O)c2ccccc2N1 | inconclusive: 11.2 µM [inhibitor, partial curve, poor fit]
43 | COc1ccc(/C=C2\CCCC3C2=NC(=S)NC3c2ccc(OC)cc2)cc1 (configuration not stated) | inconclusive: 13 µM [inhibitor, partial curve, poor fit]
44 | O=C(Cc1cccc2ccccc12)Nc1ccccc1 | inconclusive: 35.5 µM [inhibitor, partial curve, poor fit]
45 | COc1ccc(S(=O)(=O)NCC(c2ccc(N(C)C)cc2)N2CCc3ccccc32)cc1F (configuration not stated) | inactive
46 | O=C(O)c1c(Cl)c(Cl)c(Cl)c(Cl)c1-c1c2cc(I)c(=O)c(I)c-2oc2c(I)c(O)c(I)cc12 | inconclusive: 17.7 µM [inhibitor, single point]

Row | SMILES | Potency
47 | COc1cccc(N2CCN(c3ncnc4c3c(-c3ccccc3)cn4-c3cccc(C(F)(F)F)c3)CC2)c1 | inconclusive: 2.51 µM [inhibitor, full curve]
48 | COc1ccccc1N1CCN(Cc2nc(N)nc(Nc3ccc(C)c(Cl)c3)n2)CC1 | inconclusive: 11.2 µM [inhibitor, partial curve]
49 | O=C(Nc1ccc(N2CCCCC2)cc1)c1ccc(F)cc1 | inconclusive: 7.94 µM [inhibitor, partial curve, poor fit]
50 | COc1cc(/C=C/C(=O)OCC(=O)Nc2cc(S(=O)(=O)N3CCCC3)ccc2Cl)cc(OC)c1OC | inconclusive: 1.12 µM [inhibitor, single point]
51 | Cc1ccnc(Nc2nc(-c3ccc(O)c(O)c3)cs2)c1 | inconclusive: 15.8 µM [inhibitor, single point]
52 | O=C(CN1CCN(C(c2ccccc2)c2ccccc2)CC1)NC(=O)NCc1ccco1 | inconclusive: 0.651 µM [inhibitor, full curve, poor fit]
53 | COc1ccc(OC)c(NC(=O)N2CC3CCCN3c3ccccc32)c1 (configuration not stated) | inactive
54 | O=C(CC1NCCc2ccccc21)Nc1ccc(Oc2ccccc2)cc1 (configuration not stated) | inactive
55 | CCOC(=O)c1cccc(NC(=O)N2CC=C(c3c[nH]c4ccccc34)CC2)c1 | inconclusive: 7.08 µM [inhibitor, partial curve, poor fit]
56 | COCCNc1oc(-c2ccc(OC)cc2)nc1C#N | inconclusive: 3.98 µM [activator, full curve]
57 | Cc1cccc(NCc2nnc(-c3ccccc3)o2)c1C | inconclusive: 11.2 µM [inhibitor, single point]
58 | COCCNC(=O)c1ccc2c(Cl)c3c(nc2c1)CCC3 | inactive
59 | COc1cccc(NC(=O)CN(c2cccc(OC)c2)S(C)(=O)=O)c1 | inactive
60 | COc1ccc(-c2cc(C(=O)NCCc3ccc(OC)c(OC)c3)c3c(-c4ccc(F)cc4)[nH]nc3n2)cc1 | inconclusive: 0.562 µM [activator, full curve, poor fit]
61 | CCOC(=O)c1ccc(NC(=O)Cn2c3ncccc3c(=O)n2-c2ccc(C)c(C)c2)cc1 | inactive
62 | CC1(C)CC(=O)C2=C(C1)c1c(ccc3ncccc13)NC2c1cccs1 (configuration not stated) | inconclusive: 11.2 µM [inhibitor, partial curve, poor fit]
63 | Cc1ccc(NC(=O)c2ccc3snnc3c2)cc1C | inconclusive: 10 µM [activator, partial curve, poor fit]
64 | COc1ccccc1NC(=O)C1CCCN(c2ncnc3onc(-c4ccc(F)cc4)c23)C1 (configuration not stated) | inactive
65 | COC(=O)c1ccccc1NC(=O)c1nn(-c2ccc(OC)cc2)c(=O)c2c1c1ccccc1n2C | inactive
66 | COC(=O)c1ccc(CNC(=O)COC(=O)c2cc(Cl)nc(Cl)c2)cc1 | inconclusive: 0.112 µM [inhibitor, full curve, poor fit]
67 | C=CCNC(=O)/C(=C\C=C\c1ccccc1)NC(=O)c1ccccc1Cl | inconclusive: 10.3 µM [inhibitor, single point]

2 of these compounds in a different format:
Row	SMILES	Potency
53	COc1ccc(OC)c(NC(=O)N2CC3CCCN3c3ccccc32)c1 (configuration not stated)	inactive
54	O=C(CC1NCCc2ccccc21)Nc1ccc(Oc2ccccc2)cc1 (configuration not stated)	inactive
